Results on 2 molecules are retold here after PMC3707915.

Protein sequences, listed by entry. Tags and fused reporters are not part of them.
UniProt P53742: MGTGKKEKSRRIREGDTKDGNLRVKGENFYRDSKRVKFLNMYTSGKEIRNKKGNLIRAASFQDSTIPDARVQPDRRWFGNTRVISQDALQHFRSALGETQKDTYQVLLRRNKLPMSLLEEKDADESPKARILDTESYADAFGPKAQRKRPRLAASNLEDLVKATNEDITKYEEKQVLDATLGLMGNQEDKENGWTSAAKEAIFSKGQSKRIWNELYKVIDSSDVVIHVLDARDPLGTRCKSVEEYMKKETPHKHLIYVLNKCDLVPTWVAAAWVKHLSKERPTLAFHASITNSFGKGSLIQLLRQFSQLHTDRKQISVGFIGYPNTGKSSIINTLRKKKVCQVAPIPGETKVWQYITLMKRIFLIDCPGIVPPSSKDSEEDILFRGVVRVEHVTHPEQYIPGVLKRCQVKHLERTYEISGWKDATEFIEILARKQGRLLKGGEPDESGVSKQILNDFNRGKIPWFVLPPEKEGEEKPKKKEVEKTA

This assay deals with T1, Nog1-TAP (S. cerevisiae) (UniProt Q02892).
T1 sequence: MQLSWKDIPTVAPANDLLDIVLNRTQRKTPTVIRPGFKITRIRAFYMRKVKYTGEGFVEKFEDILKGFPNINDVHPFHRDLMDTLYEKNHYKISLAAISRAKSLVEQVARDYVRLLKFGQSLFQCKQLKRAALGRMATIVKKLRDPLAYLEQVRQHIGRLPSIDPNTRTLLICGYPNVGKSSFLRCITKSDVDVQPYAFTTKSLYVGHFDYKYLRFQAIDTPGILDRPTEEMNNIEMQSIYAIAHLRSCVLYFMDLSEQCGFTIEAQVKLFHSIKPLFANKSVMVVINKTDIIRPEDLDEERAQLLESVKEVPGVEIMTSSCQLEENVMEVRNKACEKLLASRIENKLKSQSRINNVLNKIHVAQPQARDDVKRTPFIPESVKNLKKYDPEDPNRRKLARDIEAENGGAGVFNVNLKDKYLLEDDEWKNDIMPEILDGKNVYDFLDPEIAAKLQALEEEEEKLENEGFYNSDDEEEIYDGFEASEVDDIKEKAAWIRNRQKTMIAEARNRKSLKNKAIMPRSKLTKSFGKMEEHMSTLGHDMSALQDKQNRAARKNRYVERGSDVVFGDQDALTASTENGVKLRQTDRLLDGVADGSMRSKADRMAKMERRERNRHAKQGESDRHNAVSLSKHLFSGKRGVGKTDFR
Kind of assay: co-IP; Nog1-TAP and associated proteins affinity purified on an IgG matrix from extracts of wild type or conditional expression mutants of RPL2, RPL43, RPL21, RPL25 grown in galactose or glucose; purified fractions analysed by SDS-PAGE and western blotting with specific antibodies. In general terms: A western blot detects proteins with antibodies after separation by electrophoresis.

These are yes or no findings as the source states them, for the method shown. Binding seen in cells or lysates may run through a third protein. Some entries that bind do so weakly or less than the wild type.

For the molecule Nog2 (from UniProt P53742 1-486), the binding entry was “binds”.

B1: Rsa4 (protein, UniProt P25382 1-515)
chain: MSTLIPPPSKKQKKEAQLPREVAIIPKDLPNVSIKFQALDTGDNVGGALRVPGAISEKQLEELLNQLNGTSDDPVPYTFSCTIQGKKASDPVKTIDITDNLYSSLIKPGYNSTEDQITLLYTPRAVFKVKPVTRSSSAIAGHGSTILCSAFAPHTSSRMVTGAGDNTARIWDCDTQTPMHTLKGHYNWVLCVSWSPDGEVIATGSMDNTIRLWDPKSGQCLGDALRGHSKWITSLSWEPIHLVKPGSKPRLASSSKDGTIKIWDTVSRVCQYTMSGHTNSVSCVKWGGQGLLYSGSHDRTVRVWDINSQGRCINILKSHAHWVNHLSLSTDYALRIGAFDHTGKKPSTPEEAQKKALENYEKICKKNGNSEEMMVTASDDYTMFLWNPLKSTKPIARMTGHQKLVNHVAFSPDGRYIVSASFDNSIKLWDGRDGKFISTFRGHVASVYQVAWSSDCRLLVSCSKDTTLKVWDVRTRKLSVDLPGHKDEVYTVDWSVDGKRVCSGGKDKMVRLWTH
On to B1, for which the binding entry was “binds”.
